Results reported in article PMC3614555.
Results are given in words; binding and its absence hold for the method and conditions named. Binding seen in cells or lysates may run through a third protein. Some results given as binding are weak or reduced against the parent protein; the word gives no strength.

Protein sequences, listed by entry. Tags and fused reporters are not part of them. Lines headed by an entry give the natural chain unless they say otherwise; changes in a name come on top.
UniProt Q00651: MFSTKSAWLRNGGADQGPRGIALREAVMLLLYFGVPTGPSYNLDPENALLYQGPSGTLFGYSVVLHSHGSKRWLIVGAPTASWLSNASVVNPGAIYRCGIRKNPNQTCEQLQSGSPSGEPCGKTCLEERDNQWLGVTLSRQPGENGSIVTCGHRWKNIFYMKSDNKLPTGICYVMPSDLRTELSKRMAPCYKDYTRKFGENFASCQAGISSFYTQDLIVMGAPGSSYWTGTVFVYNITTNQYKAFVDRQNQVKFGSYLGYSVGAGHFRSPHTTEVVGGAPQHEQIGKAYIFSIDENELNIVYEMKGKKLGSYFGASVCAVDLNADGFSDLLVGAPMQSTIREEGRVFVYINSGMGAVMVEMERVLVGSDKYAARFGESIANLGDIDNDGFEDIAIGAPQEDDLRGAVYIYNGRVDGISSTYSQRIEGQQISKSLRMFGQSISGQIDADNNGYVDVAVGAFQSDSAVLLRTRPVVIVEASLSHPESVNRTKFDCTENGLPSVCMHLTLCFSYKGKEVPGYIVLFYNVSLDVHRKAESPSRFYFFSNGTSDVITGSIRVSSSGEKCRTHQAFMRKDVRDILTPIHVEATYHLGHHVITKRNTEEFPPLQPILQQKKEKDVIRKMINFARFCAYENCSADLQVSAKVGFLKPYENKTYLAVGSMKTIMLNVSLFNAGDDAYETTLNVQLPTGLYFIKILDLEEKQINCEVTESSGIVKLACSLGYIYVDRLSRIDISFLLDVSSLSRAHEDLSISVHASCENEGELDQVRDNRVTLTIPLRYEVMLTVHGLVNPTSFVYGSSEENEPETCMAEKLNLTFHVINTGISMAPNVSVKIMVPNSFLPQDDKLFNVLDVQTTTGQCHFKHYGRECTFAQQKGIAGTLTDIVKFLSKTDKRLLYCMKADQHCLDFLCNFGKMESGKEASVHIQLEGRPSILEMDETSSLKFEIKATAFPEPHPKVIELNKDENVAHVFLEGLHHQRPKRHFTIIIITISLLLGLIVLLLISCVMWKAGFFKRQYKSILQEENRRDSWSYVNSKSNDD
UniProt P09055: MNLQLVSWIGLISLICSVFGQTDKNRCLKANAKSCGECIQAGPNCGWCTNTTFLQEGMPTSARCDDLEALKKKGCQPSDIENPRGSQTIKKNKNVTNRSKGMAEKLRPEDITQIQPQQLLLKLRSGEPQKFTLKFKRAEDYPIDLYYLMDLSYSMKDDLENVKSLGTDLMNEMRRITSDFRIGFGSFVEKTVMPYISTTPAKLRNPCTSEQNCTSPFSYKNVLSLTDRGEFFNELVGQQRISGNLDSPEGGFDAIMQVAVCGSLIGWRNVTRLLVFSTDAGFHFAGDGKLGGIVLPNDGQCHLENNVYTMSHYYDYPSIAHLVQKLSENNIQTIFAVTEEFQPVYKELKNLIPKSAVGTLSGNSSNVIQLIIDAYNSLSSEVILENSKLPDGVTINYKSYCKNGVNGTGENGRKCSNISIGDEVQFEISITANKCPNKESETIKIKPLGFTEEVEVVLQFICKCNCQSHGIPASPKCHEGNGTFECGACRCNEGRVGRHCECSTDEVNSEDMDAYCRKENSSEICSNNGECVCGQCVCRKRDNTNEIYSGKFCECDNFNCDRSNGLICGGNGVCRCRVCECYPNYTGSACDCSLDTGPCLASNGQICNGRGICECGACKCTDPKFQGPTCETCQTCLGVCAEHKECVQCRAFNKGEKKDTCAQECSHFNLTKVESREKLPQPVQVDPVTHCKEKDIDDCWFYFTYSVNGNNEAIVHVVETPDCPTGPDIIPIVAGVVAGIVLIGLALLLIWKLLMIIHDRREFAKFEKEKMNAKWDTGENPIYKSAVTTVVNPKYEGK
UniProt Q8VI36: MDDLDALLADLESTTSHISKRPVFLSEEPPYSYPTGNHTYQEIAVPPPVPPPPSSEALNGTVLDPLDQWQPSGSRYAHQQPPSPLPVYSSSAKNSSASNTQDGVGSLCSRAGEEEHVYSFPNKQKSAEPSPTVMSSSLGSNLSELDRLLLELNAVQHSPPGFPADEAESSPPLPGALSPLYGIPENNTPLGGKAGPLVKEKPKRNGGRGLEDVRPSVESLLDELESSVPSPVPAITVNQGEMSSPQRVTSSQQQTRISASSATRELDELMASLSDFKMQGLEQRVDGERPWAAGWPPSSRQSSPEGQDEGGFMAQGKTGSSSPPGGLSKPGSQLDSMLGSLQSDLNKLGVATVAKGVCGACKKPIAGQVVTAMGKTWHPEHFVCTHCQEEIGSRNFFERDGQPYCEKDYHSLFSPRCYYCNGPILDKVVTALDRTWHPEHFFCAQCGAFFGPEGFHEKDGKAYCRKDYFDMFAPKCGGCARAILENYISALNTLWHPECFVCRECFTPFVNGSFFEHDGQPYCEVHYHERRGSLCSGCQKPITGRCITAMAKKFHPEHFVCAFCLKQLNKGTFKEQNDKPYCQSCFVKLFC

What was measured:
[1] = biological target: T1, integrin α4β1 (mouse (endogenous in bone marrow derived cells)) (UniProt Q00651+P09055); experiment: co-IP; integrin α4β1 immunoprecipitated from p110γ−/− bone marrow derived cells with (+) or without (−) SDF-1α stimulation; immunoblotted for the integrin α4 subunit, talin and paxillin
[2] = biological target: T1, integrin α4β1 (mouse (endogenous in bone marrow derived cells)); experiment: co-IP; integrin α4β1 immunoprecipitated from bone marrow derived cells with (+) or without (−) SDF-1α stimulation; immunoblotted for the integrin α4 subunit, talin and paxillin
[3] = biological target: integrin α4β1 from α4Y991A mice (mouse (endogenous in bone marrow derived cells)) (UniProt Q00651+P09055); experiment: as above

paxillin (from UniProt Q8VI36 1-591)
binding [1]: no binding (condition: in p110γ−/− myeloid cells)
binding [2]: binds
binding [3]: no binding
